## Screening data, single-dose tests

Source: ChEMBL document CHEMBL3988442, “University of Dundee, Small-Polar-MMV Screening Library” (2021).

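Assay of Toxoplasma gondii numbers, read through their beta-galactosidase reporter with a colour substrate. Compounds at 50 µM. The record gives no direction; the compounds picked for IC50 retests had high values, so higher reads as fewer parasites. Of about 18,000 compounds tested this way, about 170 (0.94%) reached 50% or more in at least one test.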

The filed quantity is “Percent Effect” (%).
The controls that fix the scale are not given in the record; negative values are as filed.
Compounds were drawn at random from those tested, without regard to their results.

| # | Compound | Percent Effect |
|---|---|---|
| 1 | `CC(C)c1nnc(C2CNCCO2)o1` (centres unmarked) | -2.609% |
| 2 | `CC(=O)N1CCC(NS(=O)(=O)c2ccc(C)s2)CC1` | 13.13% |
| 3 | `O[C@@H]1COCC[C@H]1NC1Cc2ccccc2C1` | 11.78% |
| 4 | `Cn1cnnc1C1CCCN1` (centres unmarked) | 17.16% |
| 5 | `O=C(c1cccnc1)N1CCC(N2CC=CC2)CC1` | -5.963% |
| 6 | `Cc1ccc(S(=O)(=O)NCC(C)N)cc1Br` (centres unmarked) | 25.65% |
| 7 | `Cc1c[nH]c(CNC(=O)CCc2cccnc2)n1` | -5.14% |
| 8 | `CCc1nnsc1C(=O)NCc1csc(C)n1` | -9.138% |
| 9 | `NC(CCO)C1CCCCC1` (centres unmarked) | 4.045% |
| 10 | `CNS(=O)(=O)c1ccc(C(=O)NC(C)COC)cc1` (centres unmarked) | -3.213% |
| 11 | `CN(CCOCc1ccccc1)C(=O)c1cc[nH]n1` | -2.663% |
| 12 | `CC1(C)C(=O)NCCN1S(=O)(=O)c1ccccc1` | -5.87% |
| 13 | `CC(C)NS(=O)(=O)N1CCNCC1` | 0.3151% |
| 14 | `CC(=O)c1ccc(CN)nc1C` | -2.661% |
| 15 | `CC(C)(CO)NC(=O)Nc1cnn(CC(F)(F)F)c1` | -3.645% |
| 16 | `CN(Cc1ccoc1)C(=O)CN(C)C1CCS(=O)(=O)C1` (centres unmarked) | -6.912% |
| 17 | `COc1ccc(CNC(=O)N2C[C@@H](C)[C@@](C)(O)C2)cc1` | -13.44% |
| 18 | `CC1CCN(CCNS(C)(=O)=O)CC1` | -13.01% |
| 19 | `Cn1c(C(C)(C)N)nc2ccccc21` | 4.322% |
| 20 | `COc1nc(C)ccc1C#N` | -10.21% |
| 21 | `CCNCC1CCOC1` (centres unmarked) | 1.84% |
| 22 | `O=C(c1ccco1)N1CCCC1c1ccco1` (centres unmarked) | -4.49% |
| 23 | `CCOC(=O)NCCNC(=O)NCc1ccoc1C` | 1.782% |
| 24 | `COc1ccccc1NC(=O)NCCn1ccnc1` | -6.649% |
| 25 | `O=C(NC1(c2nnc[nH]2)CCC1)c1ccc(Cl)cn1` | -1.932% |
| 26 | `Cc1occc1C(=O)NCC(C)CN1CCOCC1` (centres unmarked) | -11.31% |
| 27 | `Cc1ccccc1C(C)CC(=O)NC(C)(CO)CO` (centres unmarked) | 9.486% |
| 28 | `CCC(CNC(=O)c1ccncc1)N1CCCC1` (centres unmarked) | 3.289% |
| 29 | `Cc1cc2cc(C(=O)N3CCS(=O)(=O)CC3)ccc2o1` | 18.42% |
| 30 | `Clc1cccnc1N1CCNCC1` | 23.91% |
| 31 | `NC(=O)c1ccc2c(c1)CCCN2Cc1ccon1` | 0% |
| 32 | `O=C(c1cc(CN2CCC(O)CC2)on1)N1CCCC1` | 18.37% |
| 33 | `COc1ccc(NC(=O)CCOCC(C)C)c(OC)c1` | 5.617% |
| 34 | `Cc1ncsc1CCO` | -5.57% |
| 35 | `CN1CCCN(C(=O)c2coc(Br)c2)CC1` | -2.327% |
| 36 | `Cn1cc(CCCO)cn1` | -5.306% |
| 37 | `COc1ccc(N2CCNC(C)C2)cc1` (centres unmarked) | -14.85% |
| 38 | `CCc1ccc(CN(CCO)Cc2nccn2C)nc1` | 67.1% |
| 39 | `CCCN(Cc1cc(OC)ccn1)C1CCS(=O)(=O)C1` (centres unmarked) | -12.45% |
| 40 | `CS(=O)(=O)CCN1C(=O)c2cc(Cl)c(Cl)cc2C1=O` | -11.77% |
| 41 | `Cc1cc(C)cc(OCC(=O)N2CCNCC2)c1` | -32.55% |
| 42 | `CC(C)(C)OC(=O)NCCC(=O)NCC1CCCCN1` (centres unmarked) | -0.8369% |
| 43 | `CCOc1ccccc1CNC(=O)C1CCN(C)CC1` | -4.324% |
| 44 | `CNC(=O)NC(=O)C(C)Nc1cccc(C)c1` (centres unmarked) | -21.11% |
| 45 | `O=C(NCC1CC1)c1noc(-c2ccccc2F)n1` | 0.2164% |
| 46 | `CN(C)C(=O)C(C)(C)NC(=O)[C@H](O)c1ccccc1Cl` | -19.22% |
| 47 | `COc1ccc(CCC(=O)N2CCNCC2)cc1` | 2.597% |
| 48 | `CCn1cc(Br)c(=O)c(NC(=O)c2cc(C)on2)c1` | 1.576% |
| 49 | `CCNc1ncc(C(=O)N[C@@H]2CC[C@@H](N)C2)cn1` | -1.1% |
| 50 | `NCCC1CN(CCn2cc(Cl)cn2)CCO1` (centres unmarked) | -7.72% |
| 51 | `N#Cc1ncn(CCOCC2CC2)c1C#N` | -0.1254% |

The last 7 entries again:

{"compound": "O=C(NCC1CC1)c1noc(-c2ccccc2F)n1", "Percent Effect": 0.2164}
{"compound": "CN(C)C(=O)C(C)(C)NC(=O)[C@H](O)c1ccccc1Cl", "Percent Effect": -19.22}
{"compound": "COc1ccc(CCC(=O)N2CCNCC2)cc1", "Percent Effect": 2.597}
{"compound": "CCn1cc(Br)c(=O)c(NC(=O)c2cc(C)on2)c1", "Percent Effect": 1.576}
{"compound": "CCNc1ncc(C(=O)N[C@@H]2CC[C@@H](N)C2)cn1", "Percent Effect": -1.1}
{"compound": "NCCC1CN(CCn2cc(Cl)cn2)CCO1", "stereo": "centres unmarked", "Percent Effect": -7.72}
{"compound": "N#Cc1ncn(CCOCC2CC2)c1C#N", "Percent Effect": -0.1254}